This passage reports binding results from patent US20260234201A1.

No constants are given. Whether binding was seen depends on the method and setting. Some binding calls cover weakened binding; strength is not graded here.

Assay [1] deals with biotinylated full-length human epidermal growth factor receptor 2 (HER2) (human) (UniProt P04626). Briefly: SPR single trace, 500 nM analyte on chip coated with biotinylated HER2.
Assay [2] shares this target. Briefly: SPR single trace, 500 nM analyte on biotinylated full-length human HER2.

B1: DARPin03 (non DTPA-coupled) (designed binder)
chain: DLGIKLLFAAAKGQDDEVRELLKAGADVNAKDFQGVTPLHIAAQSGHLEIVEVLLKAGADVNAKDVTGDTPLHLAAQHGHLEIVEVLLKAGADVNAQDERGWTPADLAADWGHEDIAEVLQKAA
Regarding B1, the binding entry in assay [1] and in assay [2] was “binds” in each case.

B2: GS-DARPin03-GSGSC-DTPA (designed binder)
chain: GSDLGIKLLFAAAKGQDDEVRELLKAGADVNAKDFQGVTPLHIAAQSGHLEIVEVLLKAGADVNAKDVTGDTPLHLAAQHGHLEIVEVLLKAGADVNAQDERGWTPADLAADWGHEDIAEVLQKAAGSGSC
modifications: maleimide-DTPA coupled to the C-terminal Cys of the GSGSC tag
For B2, the binding result in assay [1] is reported as “binds”.

B3: GS-DARPin02-GSGSC-DTPA (designed binder)
chain: GSDLGKKLLEAARAGQDDEVRELLKAGADVNAKDEYGLTPLYLATAHGHLEIVEVLLKAGADVNAVDAIGFTPLHLAAFIGHLEIAEVLLKAGADVNAQDKFGKTPADIAAGAGNEDIAEVLQKAAGSGSC
modifications: maleimide-DTPA coupled to the C-terminal Cys of the GSGSC tag
Take B3: the binding entry in assay [1] is reported as “binds”.

B4: DARPin02 (non DTPA-coupled) (designed binder)
chain: DLGKKLLEAARAGQDDEVRELLKAGADVNAKDEYGLTPLYLATAHGHLEIVEVLLKAGADVNAVDAIGFTPLHLAAFIGHLEIAEVLLKAGADVNAQDKFGKTPADIAAGAGNEDIAEVLQKAA
On to B4, for which the binding entry in assay [1] and in assay [2] was “binds” each time.
